{"source": "PubChem BioAssay AID743121, NCATS – 2013", "test": "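Genes whose silencing strengthens cell killing by camptothecin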 (primary screen)", "cells": "MDA-MB-231 cells, a human breast cancer line", "reagents": "single siRNA against human genes, 20 nM siRNA (0.8 pmol per well)", "timing": "120 h (drug added 48 h after transfection, read 72 h later)", "treatment": "camptothecin 20 nM (about EC30) for 72 h; vehicle 0.1% DMSO in parallel plates", "measured": "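CellTiter-Glo ATP signal, scaled to control siRNA as percent viability; sensitisation given as log2 of untreated divided by camptothecin-treated viability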", "scale": "log2 vehicle/camptothecin viability: higher = stronger sensitisation to camptothecin; viability with camptothecin: higher = more viable cells", "active means": "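Active genes have an RSA gene-level p-value below 0.001, computed from the ratios of their separate siRNAs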", "note": "In all, the deposit lists about 26,000 reagents; shown is an unselected part. Over the whole deposit, 167 (0.63%) were called active. 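Calls are per gene from RSA p-values that are not deposited; an individual active-marked siRNA can sensitise only weakly.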 Reagents against one gene are numbered here. Not all columns of the deposit are shown."}
{"target": "MTNR1B (melatonin receptor 1B)", "siRNA no.": 1, "log2 vehicle/camptothecin viability": -0.0854, "viability with camptothecin (% of control)": 102, "outcome": "inactive"}
{"target": "MTNR1B (melatonin receptor 1B)", "siRNA no.": 2, "log2 vehicle/camptothecin viability": -0.0663, "viability with camptothecin (% of control)": 71.6, "outcome": "inactive"}
{"target": "MTNR1B (melatonin receptor 1B)", "siRNA no.": 3, "log2 vehicle/camptothecin viability": -0.332, "viability with camptothecin (% of control)": 69.6, "outcome": "inactive"}
{"target": "MTNR1B (melatonin receptor 1B)", "siRNA no.": 4, "log2 vehicle/camptothecin viability": -0.124, "viability with camptothecin (% of control)": 126, "outcome": "inactive"}
{"target": "PHOSPHO1 (phosphoethanolamine/phosphocholine phosphatase 1)", "siRNA no.": 1, "log2 vehicle/camptothecin viability": -0.325, "viability with camptothecin (% of control)": 82.3, "outcome": "inactive"}
{"target": "PHOSPHO1 (phosphoethanolamine/phosphocholine phosphatase 1)", "siRNA no.": 2, "log2 vehicle/camptothecin viability": -0.578, "viability with camptothecin (% of control)": 89.2, "outcome": "inactive"}
{"target": "PHOSPHO1 (phosphoethanolamine/phosphocholine phosphatase 1)", "siRNA no.": 3, "log2 vehicle/camptothecin viability": 0.203, "viability with camptothecin (% of control)": 39.1, "outcome": "inactive"}
{"target": "PHOSPHO1 (phosphoethanolamine/phosphocholine phosphatase 1)", "siRNA no.": 4, "log2 vehicle/camptothecin viability": -0.478, "viability with camptothecin (% of control)": 59, "outcome": "inactive"}

2 entries already listed, ordered by “log2 vehicle/camptothecin viability”, high to low:
{"target": "PHOSPHO1 (phosphoethanolamine/phosphocholine phosphatase 1)", "siRNA no.": 3, "log2 vehicle/camptothecin viability": 0.203, "viability with camptothecin (% of control)": 39.1, "outcome": "inactive"}
{"target": "PHOSPHO1 (phosphoethanolamine/phosphocholine phosphatase 1)", "siRNA no.": 2, "log2 vehicle/camptothecin viability": -0.578, "viability with camptothecin (% of control)": 89.2, "outcome": "inactive"}

The list goes on:
{"target": "BCHE (butyrylcholinesterase)", "siRNA no.": 1, "log2 vehicle/camptothecin viability": -0.124, "viability with camptothecin (% of control)": 111, "outcome": "inactive"}
{"target": "BCHE (butyrylcholinesterase)", "siRNA no.": 2, "log2 vehicle/camptothecin viability": -0.391, "viability with camptothecin (% of control)": 90.8, "outcome": "inactive"}
{"target": "BCHE (butyrylcholinesterase)", "siRNA no.": 3, "log2 vehicle/camptothecin viability": -0.0573, "viability with camptothecin (% of control)": 109, "outcome": "inactive"}
{"target": "BCHE (butyrylcholinesterase)", "siRNA no.": 4, "log2 vehicle/camptothecin viability": -0.295, "viability with camptothecin (% of control)": 99.6, "outcome": "inactive"}
{"target": "CASP1 (caspase 1)", "siRNA no.": 1, "log2 vehicle/camptothecin viability": 0.653, "viability with camptothecin (% of control)": 54.6, "outcome": "inactive"}
{"target": "CASP1 (caspase 1)", "siRNA no.": 2, "log2 vehicle/camptothecin viability": 0.329, "viability with camptothecin (% of control)": 78.7, "outcome": "inactive"}
{"target": "CASP1 (caspase 1)", "siRNA no.": 3, "log2 vehicle/camptothecin viability": -0.803, "viability with camptothecin (% of control)": 76.8, "outcome": "inactive"}
{"target": "CASP1 (caspase 1)", "siRNA no.": 4, "log2 vehicle/camptothecin viability": 0.967, "viability with camptothecin (% of control)": 15.5, "outcome": "inactive"}
